## Screening data

The results are deposited in PubChem (AID1053133; Broad Institute, 2014).

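Vaccinia-infected cells with a two-color viral stage reporter; Venus fluorescence read on a plate reader; the cell line is not named here; timing not stated here.
The test concentration is not given here.
Percent change in Venus reporter signal; lower (more negative) values mean stronger inhibition of that viral stage.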

Values are in %.
How 0% and 100% were set is not given here.
Common to all entries: measured here: Venus reporter, other viral stage.
This is a side read-out of the assay, for part of the compounds, not drawn at random.

structure	activity change (Venus) (%)
O=C(c1ccccc1)N1CC(=O)N2[C@H](CO)[C@H](c3ccc(C#CCC4CCCC4)cc3)[C@@H]2C1	-36.94
O=C(c1ccccc1)N1CC(=O)N2[C@H](CO)[C@@H](c3ccc(-c4ccccc4)cc3)[C@H]2C1	-27.37
O=C(C[C@H]1CC[C@@H]2[C@H](COC[C@H](O)CN2C(=O)Nc2ccc(Cl)c(Cl)c2)O1)NCc1ccc(Cl)c(Cl)c1	-73.79
C[C@@H]1CCCCO[C@H](CN(C)CC2CCCCC2)[C@@H](C)CN([C@H](C)CO)C(=O)c2cc(NC(=O)Nc3ccc(F)cc3)ccc2O1	-29.83
O=C(Nc1cc(F)ccc1F)N1CC(=O)N2[C@H](C1)[C@@H](c1ccc(-c3cccc(F)c3)cc1)[C@@H]2CO	-34.68
C[C@@H]1CN([C@H](C)CO)S(=O)(=O)c2ccc(C#CC3CC3)cc2O[C@@H]1CN(C)Cc1ccccc1F	-39.57
Cc1ccc(-c2ccc3c(c2)O[C@H](CN(C)CC2CC2)[C@H](C)CN([C@@H](C)CO)S3(=O)=O)cc1	-30.63
C[C@H](CO)N1C[C@H](C)[C@H](CN(C)Cc2ccccc2)OCCCC[C@H](C)Oc2ccc(NS(=O)(=O)c3cccs3)cc2C1=O	-50.38
COc1cccc(NC(=O)N(C)C[C@@H]2Oc3cc(/C=C/c4ccccc4)ccc3S(=O)(=O)N([C@H](C)CO)C[C@@H]2C)c1	-33.07
C[C@H](CO)N1C[C@H](C)[C@H](CN(C)Cc2ccccc2C(F)(F)F)OCc2ccccc2-c2c(n(C)c3ccccc23)C1=O	-68.11
Cc1noc(C)c1S(=O)(=O)N(C)C[C@H]1OCCCC[C@H](C)Oc2ccc(NS(=O)(=O)c3ccccc3)cc2C(=O)N([C@@H](C)CO)C[C@@H]1C	-30.63
Cc1cccc(S(=O)(=O)N2CCCCN3[C@H](CO)[C@H](c4ccc(C#CC5CC5)cc4)[C@H]3C2)c1	-48.51
COc1ccccc1S(=O)(=O)N(C)C[C@H]1OCc2ccccc2-c2c(n(C)c3ccccc23)C(=O)N([C@@H](C)CO)C[C@H]1C	-39.13
COc1cccc(CN(C)C[C@@H]2OCc3ccccc3-c3c(n(C)c4ccccc34)C(=O)N([C@@H](C)CO)C[C@H]2C)c1	-62.89
C[C@H](CO)N1C[C@H](C)[C@@H](CN(C)CC2CCCCC2)Oc2ccc(NC(=O)Nc3ccccc3)cc2CC1=O	-42.66
Cc1noc(C)c1NC(=O)Nc1ccc2c(c1)C(=O)N([C@H](C)CO)C[C@@H](C)[C@H](CN(C)Cc1ccc(Cl)c(Cl)c1)OCCCC[C@@H](C)O2	-67.19
N#Cc1cccc(-c2ccc3c(c2)[C@@H]2[C@@H](CCN2C(=O)C2CCCCC2)[C@H](CO)N3)c1	-44.43
Cc1ccc(S(=O)(=O)Nc2ccc3c(c2)C(=O)N([C@H](C)CO)C[C@@H](C)[C@H](CN(C)Cc2ccc(Cl)c(Cl)c2)OCCCC[C@@H](C)O3)cc1	-49.8
Cc1ccc(S(=O)(=O)Nc2ccc3c(c2)C(=O)N([C@H](C)CO)C[C@H](C)[C@@H](CN(C)Cc2ccc(Cl)c(Cl)c2)OCCCC[C@@H](C)O3)cc1	-35.04
C[C@H]1CCCCO[C@@H](CN(C)CC2CCCCC2)[C@@H](C)CN([C@@H](C)CO)C(=O)c2cc(NC(=O)Nc3cccc4ccccc34)ccc2O1	-29.39
C[C@@H]1CCCCO[C@@H](CN(C)Cc2ccc(C(F)(F)F)cc2)[C@H](C)CN([C@@H](C)CO)C(=O)c2cc(NC(=O)c3ccncc3)ccc2O1	-66.17
COc1ccc(-c2ccc([C@@H]3[C@H]4CN(C(=O)Cc5ccccc5)CCCCN4[C@H]3CO)cc2)cc1	-33.8
O=C(C[C@H]1CC[C@@H]2[C@H](COC[C@H](O)CN2Cc2ccc(Oc3ccccc3)cc2)O1)N1CCOCC1	-40.02
CCN(C[C@H]1N[C@H](CO)[C@H]1c1ccc(-c2ccc(F)cc2)cc1)C(=O)COC	-36.18
CO[C@H]1CN(C)C(=O)c2ccc(NC(=O)Nc3ccccc3Cl)cc2OC[C@H](C)NC[C@@H]1C	-57.15
C[C@@H]1CCCCO[C@H](CN(C)Cc2ccc(Cl)c(Cl)c2)[C@@H](C)CN([C@H](C)CO)C(=O)c2cc(NS(=O)(=O)c3cccs3)ccc2O1	-29.73
COc1ccc2c3c([nH]c2c1)[C@H](CO)N(C(=O)Nc1ccc(F)cc1)CC31CCN(S(=O)(=O)c2cccc(F)c2)CC1	-68.71
O=C1CN(S(=O)(=O)c2cccc(F)c2)C[C@@H]2[C@H](c3ccc(-c4ccccc4)cc3)[C@@H](CO)N12	-24
O=C(NC1CCCC1)N1CCCCN2[C@H](CO)[C@@H](c3ccc(/C=C/c4ccccc4)cc3)[C@@H]2C1	-49.3
Cc1ccc(-c2ccc(C3[C@@H]4CN(Cc5cccnc5)C[C@H]3N4)cc2)cc1 (some centres not stated)	-39.47
COc1ccccc1-c1ccc([C@@H]2[C@@H](C#N)N(C(=O)C3CCCCC3)[C@@H]2CO)cc1	-32.45
CCCC#Cc1ccc2c(c1)O[C@H](CN(C)C(=O)Nc1ccc(OC)cc1)[C@@H](C)CN([C@@H](C)CO)S2(=O)=O	-50.76
C[C@H](CO)N1C[C@H](C)[C@@H](CN(C)C)Oc2cc(C#CCC3CCCC3)ccc2S1(=O)=O	-69.11
C[C@@H]1CN([C@H](C)CO)C(=O)c2cc(NC(=O)Nc3ccc(F)cc3)ccc2O[C@@H](C)CCCCO[C@@H]1CN(C)Cc1ccccc1	-42.24
C[C@@H]1CN([C@H](C)CO)C(=O)c2cc(NS(=O)(=O)c3cccs3)ccc2O[C@@H]1CN(C)Cc1ccc(-c2ccccc2)cc1	-50.33
O=C(C[C@H]1CC[C@H](NC(=O)CCN2CCCCC2)[C@H](CO)O1)Nc1ccc(-c2ccccc2)cc1	-20.65
Cc1ccc(-c2ccc3c(c2)O[C@H](CN(C)Cc2ccccn2)[C@H](C)CN([C@H](C)CO)S3(=O)=O)cc1	-37.39
COc1ccc(C#Cc2ccc([C@H]3[C@H]4CN(C(=O)Cc5ccncc5)CCCCN4[C@H]3CO)cc2)cc1	-55.99
COc1ccc(NC(=O)N(C)C[C@H]2OCCCC[C@@H](C)Oc3ccc(NS(=O)(=O)c4ccc(Cl)cc4)cc3C(=O)N([C@@H](C)CO)C[C@@H]2C)cc1	-27.8
CC(C)NC(=O)N1Cc2cc(C(=O)NCC(F)(F)F)nc(-c3cccc(-c4cc5ccccc5o4)c3)c2[C@H]1CCO	-24.77
O=S(=O)(c1ccccc1F)N1CC[C@@H]2[C@H](CO)Nc3ccc(-c4ccccc4)cc3[C@@H]21	-25.3
Cc1ccc(S(=O)(=O)Nc2ccc3c(c2)C(=O)N([C@@H](C)CO)C[C@H](C)[C@@H](CN(C)Cc2ccc(Cl)c(Cl)c2)OCCCC[C@@H](C)O3)cc1	-54.45
C[C@H]1CCCCO[C@@H](CN(C)Cc2ccc(C(F)(F)F)cc2)[C@@H](C)CN([C@@H](C)CO)C(=O)c2cc(NS(=O)(=O)c3cccs3)ccc2O1	-62.19
C[C@H](CO)N1C[C@H](C)[C@H](CN(C)Cc2ccc(Oc3ccccc3)cc2)Oc2c(NC(=O)Nc3ccc4c(c3)OCO4)cccc2C1=O	-27.26
O=C(c1ccc2c(c1)OCO2)N1CC(=O)N2[C@@H](CO)[C@@H](c3ccc(C#Cc4ccccc4)cc3)[C@@H]2C1	-70.53
CCCC#Cc1ccc2c(c1)O[C@H](CN(C)Cc1cccnc1)[C@H](C)CN([C@@H](C)CO)S2(=O)=O	-33.92
CC(C)CC#Cc1ccc2c(c1)O[C@H](CN(C)C(=O)Cc1ccncc1)[C@H](C)CN([C@H](C)CO)S2(=O)=O	-25.96
C[C@@H]1CN([C@H](C)CO)C(=O)c2cc(NC(=O)Cc3cn(C)c4ccccc34)ccc2O[C@@H]1CN(C)Cc1ccc(Cl)c(Cl)c1	-24.83
COc1ccc(C#Cc2ccc([C@@H]3[C@@H](CO)N4CCCCN(Cc5ccccc5F)C[C@@H]34)cc2)cc1	-39.7
C/C=C/c1ccc([C@H]2[C@H](CO)N3CCCCN(C(=O)Nc4cc(F)ccc4F)C[C@@H]23)cc1	-19.17